Cell number change and AC50 data for 35 molecules are collected here from PubChem BioAssay AID2685 (National Center for Advancing Translational Sciences (NCATS), 2010).

Some of the results follow. Shown are side measurements of this screen, not its main read-out; they come without a call. Most of these compounds were active or inconclusive in the main read-out, so they are no random draw. The note in brackets gives the kind of curve behind each potency; many fits are weak.

The nature of this assay: qHTS Assay for Lipid Storage Modulators in Drosophila S3 Cells.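 For Cell number change: cells counted by Cell Tracker Red CMTPX staining in the red channel.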 Conditions: BODIPY lipid droplet fluorescence, 18-24 h; for cell number change: measured here: cell count max response, cells fed with added oleic acid. Summed up:
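Drosophila S3 cells got compounds at several concentrations plus oleic acid (400 uM solution). Laser-scanning cytometry with 488 nm excitation read lipid droplets at 500-530 nm and cells at 575-640 nm. Percent activity was relative to 20 uM Triacsin C.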
For orientation: In qHTS, concentration-response curves come from the screen itself.

The mark [1] stands for this setting: measured here: cell number channel AC50, cells fed with added oleic acid.
[2] abbreviates: measured here: lipid fluorescence (Fed channel) AC50, cells fed with added oleic acid.

Broadly, the AC50 is the concentration at which the activity in the assay is half-maximal. In the case of `Cc1ccc(C(=O)N2CC(C)OC(C)C2)cc1[N+](=O)[O-]` (stereo unspecified), the cell number change was -40.9%. Besides, the AC50 under setting [1] was 14.6 µM [falling, partial curve, poor fit]. The AC50 under setting [2] was 14.6 µM [falling, partial curve, poor fit].

`Fc1cc2nccnc2cc1N1CCSCC1`: the cell number change is -4.15%. Besides, the concentration at half-maximal activity (AC50) under setting [1] is 0.82 µM [falling, full curve]. For the same molecule, the concentration at half-maximal activity (AC50) under setting [2] is 0.92 µM [falling, full curve].

With `CC(C)C(NC(=O)c1ccc(F)cc1)C(=O)OCC(=O)N1CC(=O)Nc2ccccc21` (stereo unspecified), the cell number change was -54.1%. The half-maximal activity concentration (AC50) under setting [1] is 4.61 µM [falling, full curve].

In the case of `COc1ccc(C(=O)NCC(=O)OCC(=O)NCCC2=CCCCC2)cc1`, the cell number change is -20.8%. For the same molecule, the AC50 under setting [2] is 16.4 µM [falling, partial curve].

For `CC(=O)OC1CC(C)N(C(=O)c2ccccc2)c2ccc(C)cc21` (stereo unspecified), the cell number change is -33.8%. Under setting [1], the AC50 is 32.6 µM [falling, single point]. For the same molecule, the AC50 under setting [2] is 29.1 µM [falling, partial curve, poor fit].

As for `Cc1cc(C(=O)Nc2cccc(NC(=O)c3ccco3)c2)ccc1[N+](=O)[O-]`, the AC50 under setting [2] was 2.06 µM [falling, partial curve].

Turning to `CCn1c(SCC(=O)NNC(=O)c2ccc(C)cc2)nnc1-c1ccco1`, the cell number change is -27%. Further, the AC50 under setting [1] is 2.06 µM [falling, partial curve, poor fit]. In addition, the AC50 under setting [2] is 3.26 µM [falling, partial curve, poor fit].

For the molecule `Cc1ccc(CN(C#N)c2nc(C)cc(C)n2)cc1`, the cell number change is -2.26%.

In the case of `Cn1ncc(Cl)c1C(=O)N1CCN(c2cccc(Cl)c2)CC1`, the concentration at half-maximal activity (AC50) reads like this: under setting [1], 6.51 µM [rising, single point]; under setting [2], 18.4 µM [rising, partial curve].

Consider `Cc1cc(N2CCCC2)ccc1/C=N/n1cnnc1`, for which the cell number change turned out to be 1.13%. Also, under setting [2], the half-maximal activity concentration (AC50) was 14.6 µM [rising, single point].

As for `Cn1cnc([N+](=O)[O-])c1S(=O)(=O)c1ccc(Cl)cc1`, the cell number change is -71.7%. In addition, the AC50 under setting [1] is 18.4 µM [falling, single point]. Besides, the half-maximal activity concentration (AC50) under setting [2] is 16.4 µM [falling, partial curve].

Take `COc1cc(-c2nn3c(-c4cccc(C)c4)nnc3s2)cc(OC)c1OC`: the cell number change came out at 10.3%. In addition, the half-maximal activity concentration (AC50) under setting [2] was 0.731 µM [rising, full curve].

For the molecule `N#Cc1cc(C(=O)c2cc(Br)ccc2O)cn(C2CCCCC2)c1=O`, the cell number change was determined as 3.68%. In addition, the AC50 under setting [2] is 32.6 µM [rising, partial curve, poor fit].

Turning to `O=C(NCCCCc1ccccc1)C1CC(c2ccc([N+](=O)[O-])cc2)=NO1` (stereo unspecified), the cell number change is -0.829%. Further, under setting [2], the AC50 was 23.1 µM [rising, single point].

For `COC(=O)c1ccc(NC(=O)c2cc(-c3ccccn3)nc3ccccc23)cc1`, the AC50 under setting [2] was 29.1 µM [falling, single point].

`O=[N+]([O-])c1cccc(CN2CCN(Cc3ccco3)CC2)c1`: the cell number change stood at 0.901%. In addition, the AC50 under setting [2] is 23.1 µM [falling, single point].

Turning to `c1ccc(-c2ccccc2-c2nc(-c3cccnc3)no2)cc1`, the cell number change was -13.6%.

Regarding `CC(C)CN(C(=O)COC(=O)c1c2c(nc3ccccc13)CCC2)c1c(N)n(Cc2ccccc2)c(=O)[nH]c1=O`, the cell number change is -57.8%. Under setting [1], the AC50 is 9.2 µM [falling, partial curve]. Besides, the AC50 under setting [2] was 7.31 µM [falling, partial curve].

Consider `CN(C1CCCCC1)S(=O)(=O)c1ccc(NC(=O)c2ccco2)cc1`, for which the cell number change was -3.28%. The AC50 under setting [1] is 2.06 µM [rising, single point]. Moreover, under setting [2], the AC50 is 6.51 µM [rising, single point].

Take `CC(C)(C)OC(=O)n1cc(C(=O)c2ccccc2O)cn1`: the cell number change is 4.05%. Under setting [2], the half-maximal activity concentration (AC50) was 14.6 µM [rising, partial curve].

For the molecule `CCN(CC)S(=O)(=O)c1ccc2[nH]cc(C(=O)NCCC3=CCCCC3)c(=O)c2c1`, the cell number change was -31.1%. The AC50 under setting [1] is 11.6 µM [falling, partial curve]. Besides, under setting [2], the concentration at half-maximal activity (AC50) is 8.2 µM [falling, partial curve].

As to `CC(=O)NC1C(Oc2ccc(C=O)cc2)OC(COC(C)=O)C(OC(C)=O)C1OC(C)=O` (stereo unspecified), the cell number change was -28.2%.

With `COc1ccc(CCNS(=O)(=O)c2ccc3c(c2)OCCO3)cc1`, the cell number change came out at 5.4%. The AC50 under setting [2] is 6.51 µM [falling, single point].

For `O=c1[nH]c(CN2CCN(c3ccc(O)cc3)CC2)nc2scc(-c3ccc(Cl)cc3)c12`, the cell number change came out at 82.2%. Moreover, under setting [1], the half-maximal activity concentration (AC50) is 16.4 µM [rising, partial curve]. The AC50 under setting [2] is 20.6 µM [rising, partial curve].

With `Cc1c(NC(=O)N(C)c2ccccc2)c(=O)n(-c2ccccc2)n1C`, the cell number change is -10.1%. Besides, under setting [2], the concentration at half-maximal activity (AC50) was 1.16 µM [falling, full curve, poor fit].

Consider `COc1ccc(CNC(=O)C2CCC(=O)N(CC3CCCCC3)C2)cc1` (stereo unspecified), for which the cell number change is -14.1%.

On to `C=CCn1c(CC(=O)OC)csc1=Nc1ccc(C(C)=O)cc1`, for which the cell number change is 79.1%. Further, under setting [1], the half-maximal activity concentration (AC50) is 5.8 µM [rising, full curve]. The half-maximal activity concentration (AC50) under setting [2] is 5.17 µM [rising, full curve, poor fit].

Regarding `CC1(C)N=C(SCC(=O)Nc2ccc(Cl)cc2Cl)C(c2ccccc2)=N1`, the cell number change came out at 18.8%.

Consider `CCN1C(=O)[C@@H]2[C@@H](c3ccc(-c4ccc(F)cc4)c(OC)c3)N3CCCC[C@@]3(C(=O)OC)[C@@H]2C1=O`, for which the cell number change is -13.1%. Further, under setting [2], the AC50 is 29.1 µM [falling, single point].

For `CCOc1ccc2nc(NC(=O)c3cccc(-c4cc5ccccc5oc4=O)c3)sc2c1`, the cell number change is 3.34%. Also, the concentration at half-maximal activity (AC50) under setting [2] is 0.731 µM [rising, single point].

As to `Cc1ccc(S(=O)(=O)N2CCCOC2)cc1`, the half-maximal activity concentration (AC50) under setting [2] is 0.231 µM [falling, partial curve, poor fit].

As for `CC(C)(C)c1ccc(OCCC(=O)OCC(=O)NC2CC2)cc1`, the cell number change is -9.61%. Also, the AC50 under setting [1] was 0.82 µM [falling, single point]. Also, the AC50 under setting [2] was 0.731 µM [falling, full curve, poor fit].

On to `CCn1c(=O)c2sccc2n2c(CCCC(=O)N3CCN(c4ccccn4)CC3)nnc12`, for which, under setting [2], the AC50 was 6.51 µM [falling, single point].

On to `COC(=O)CN1C(=O)C(O)(CC(=O)c2ccc(C)o2)c2ccccc21` (stereo unspecified), for which the cell number change stood at 3.91%. Besides, the half-maximal activity concentration (AC50) under setting [2] was 29.1 µM [falling, partial curve, poor fit].

As for `CC1CC1C(=O)OCc1cc(=O)n2cc(Br)ccc2n1` (stereo unspecified), the cell number change is 25.4%.
